{
  "source": "paper PMC7732854",
  "target": "T1, microtubule-associated tumor-suppressor 1 (MTUS1) (human (endogenous in Caki-1)) (UniProt Q9ULD2)",
  "T1 sequence": "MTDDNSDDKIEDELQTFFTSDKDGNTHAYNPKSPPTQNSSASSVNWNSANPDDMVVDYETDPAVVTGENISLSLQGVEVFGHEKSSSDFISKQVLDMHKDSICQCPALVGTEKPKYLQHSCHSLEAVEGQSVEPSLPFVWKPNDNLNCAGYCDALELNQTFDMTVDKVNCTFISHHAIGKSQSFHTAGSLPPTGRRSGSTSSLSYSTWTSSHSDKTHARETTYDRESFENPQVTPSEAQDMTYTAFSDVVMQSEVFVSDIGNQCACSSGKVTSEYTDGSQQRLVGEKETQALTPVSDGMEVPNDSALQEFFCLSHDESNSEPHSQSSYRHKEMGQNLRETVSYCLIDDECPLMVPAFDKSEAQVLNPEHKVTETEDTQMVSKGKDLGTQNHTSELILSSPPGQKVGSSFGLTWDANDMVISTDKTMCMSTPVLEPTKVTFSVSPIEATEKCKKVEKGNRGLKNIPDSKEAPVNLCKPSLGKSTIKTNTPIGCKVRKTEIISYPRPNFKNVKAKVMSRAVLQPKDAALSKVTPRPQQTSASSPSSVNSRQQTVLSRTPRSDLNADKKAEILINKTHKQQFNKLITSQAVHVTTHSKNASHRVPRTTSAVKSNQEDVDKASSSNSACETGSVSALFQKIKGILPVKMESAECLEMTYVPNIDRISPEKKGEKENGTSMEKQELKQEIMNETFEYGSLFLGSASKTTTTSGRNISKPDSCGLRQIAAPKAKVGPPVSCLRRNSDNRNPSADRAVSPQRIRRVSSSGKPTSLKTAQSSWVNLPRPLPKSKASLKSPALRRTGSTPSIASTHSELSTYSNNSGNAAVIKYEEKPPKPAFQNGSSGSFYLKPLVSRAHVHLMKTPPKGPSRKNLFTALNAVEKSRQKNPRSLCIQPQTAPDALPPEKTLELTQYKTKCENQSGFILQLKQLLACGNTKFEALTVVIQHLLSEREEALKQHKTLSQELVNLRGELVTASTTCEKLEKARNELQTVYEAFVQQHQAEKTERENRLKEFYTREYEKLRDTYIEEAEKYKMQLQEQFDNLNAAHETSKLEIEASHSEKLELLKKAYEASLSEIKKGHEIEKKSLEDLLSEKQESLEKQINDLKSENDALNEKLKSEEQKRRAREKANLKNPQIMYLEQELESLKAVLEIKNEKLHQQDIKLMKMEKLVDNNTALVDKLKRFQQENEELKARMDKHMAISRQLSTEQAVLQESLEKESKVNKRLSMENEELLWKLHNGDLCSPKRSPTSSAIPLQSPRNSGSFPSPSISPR",
  "assay": "co-IP; Caki-1 cell lysate precipitated with MTUS1 antibody (ab198176) at 4 °C for 2 h, protein A Sepharose CL-4B beads at 4 °C overnight, washed thrice with RIPA buffer, western blot",
  "note": "Results are given in words; binding and its absence hold for the method and conditions named. In cells and extracts the contact can be indirect. Some binding calls cover weakened binding; strength is not graded here.",
  "data": [
    {"binder": "KIF2C (Kinesin family member 2C) (protein, UniProt Q99661 1-725) MAMDSSLQARLFPGLAIKIQRSNGLIHSANVRTVNLEKSCVSVEWAEGGATKGKEIDFDDVAAINPELLQLLPLHPKDNLPLQENVTIQKQKRRSVNSKIPAPKESLRSRSTRMSTVSELRITAQENDMEVELPAAANSRKQFSVPPAPTRPSCPAVAEIPLRMVSEEMEEQVHSIRGSSSANPVNSVRRKSCLVKEVEKMKNKREEKKAQNSEMRMKRAQEYDSSFPNWEFARMIKEFRATLECHPLTMTDPIEEHRICVCVRKRPLNKQELAKKEIDVISIPSKCLLLVHEPKLKVDLTKYLENQAFCFDFAFDETASNEVVYRFTARPLVQTIFEGGKATCFAYGQTGSGKTHTMGGDLSGKAQNASKGIYAMASRDVFLLKNQPCYRKLGLEVYVTFFEIYNGKLFDLLNKKAKLRVLEDGKQQVQVVGLQEHLVNSADDVIKMIDMGSACRTSGQTFANSNSSRSHACFQIILRAKGRMHGKFSLVDLAGNERGADTSSADRQTRMEGAEINKSLLALKECIRALGQNKAHTPFRESKLTQVLRDSFIGENSRTCMIATISPGISSCEYTLNTLRYADRVKELSPHSGPSGEQLIQMETEEMEACSNGALIPGNLSKEEEELSSQMSSFNEAMTQIRELEEKAMEELKEIIQQGPDWLELSEMTEQPDYDLETFVNKAESALAQQAKHFSALRDVIKALRLAMQLEEQASRQISSKKRPQ", "values": [
      {"measurement": "binding", "result": "binds"}
    ]}
  ]
}
